Experimental data reported in PubChem BioAssay AID493014 (National Center for Advancing Translational Sciences (NCATS), 2011).
Some of the results follow. Further columns of the screen follow, without active or inactive calls. The list favours compounds with an active or inconclusive main result. The note in brackets gives the kind of curve behind each potency; many fits are weak.

Test: qHTS Assay to Find Inhibitors of Chronic Active B-Cell Receptor Signaling
Conditions: ABC-DLBCL IkBa-CBG/CBR reporter, luminescence ratio (green luciferase fused to IkBa over red control in TMD8 lymphoma cells), 4 h
Outline: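 Cell line TMD8 (human ABC DLBCL), stably expressing tet-inducible CBG68-IkBa fusion and CBR; IMDM/0.5% FBS; cpd up to 46 uM; dox induction, 4 h, 37C/5% CO2; dual luminescence; green/red ratio; MG132 control.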

[1] = measured here: CBR red luminescence, cell number
[2] = measured here: IkBa-CBG green luminescence

Row | Compound | AC50 [1] | AC50 [2]
1 | CCN(CC)S(=O)(=O)c1ccc(/C=C/C(=O)Nc2ccc(F)cc2F)cc1 | 23.1 µM [falling, single point] | 
2 | CCOc1cc2c(C#N)c(N3CCNCC3)nc(N)c2c(N)n1 | 6.51 µM [falling, single point] | 
3 | Cc1cc(C(=O)COc2ccc(F)cc2Br)c(C)n1C1CC1 | 29.1 µM [rising, partial curve, poor fit] | 
4 | COc1ccc(Oc2ccc(/C=C/C(=O)c3ccc(O)cc3)cc2[N+](=O)[O-])cc1 | 20.6 µM [falling, single point] | 
5 | Cc1ccc2nc(-c3ccccc3)c(-c3ccccc3)nc2c1 | 10 µM [rising, partial curve] | 
6 | COC(=O)Cn1cc(/C=C/[N+](=O)[O-])c2ccccc21 | 8.91 µM [falling, partial curve] | 35.5 µM [falling, single point]
7 | O=c1cc(CN2CCN(C/C=C/c3ccccc3)CC2)c2cc(O)ccc2o1 | 17.8 µM [falling, single point] | 
8 | O=S(=O)(c1ccc(F)cc1)N1CCn2c(nc3ccccc32)C1 | 2.59 µM [falling, full curve] | 
9 | Cc1ccc(NC(=O)C2CSC3(C)CCC(=O)N23)cc1S(=O)(=O)N1CCOCC1 (stereo unspecified) | 23.1 µM [rising, partial curve, poor fit] | 
10 | CC(C)(C)c1ccc(C(=O)NCC(=O)OCc2ccc([N+](=O)[O-])cc2)cc1 | 13 µM [falling, partial curve, poor fit] | 
11 | COc1cccc(-n2nnc3c(=O)n(Cc4ccccc4F)cnc32)c1 | 5.62 µM [rising, partial curve, poor fit] | 
12 | CCOc1ccc(-c2c(C(=O)N/N=C/C3CC=CCC3)nnn2-c2nonc2N)cc1 (stereo unspecified) | 6.31 µM [rising, single point] | 
13 | O=S(=O)(c1cccc(-c2nc3ccccc3s2)c1)N1CCCC1 | 29.1 µM [falling, single point] | 
14 | CCCCC/C=C\C[C@H](O)/C=C/c1cccc(C[C@H](O)CCCCO)n1 | 15.8 µM [falling, partial curve, poor fit] | 
15 | Cc1cc(C)c2nc(NNC(=O)c3ccc(S(=O)(=O)N4CCc5ccccc5C4)cc3)sc2c1 | 5.8 µM [rising, full curve] | 
16 | Cc1cccc(NC(=O)N2CCCC2C(=O)NCc2ccccc2)c1 (stereo unspecified) | 17.8 µM [rising, single point] | 
17 | O=c1c2ccccc2cnn1CCOc1ccccc1 | 14.6 µM [falling, partial curve, poor fit] | 
18 | O=C(c1ccc(Cl)c(Cl)c1)N1CCC(=O)N(C(COCc2cccc(C(F)(F)F)c2)Cc2ccccc2)CC1 (stereo unspecified) | 16.4 µM [falling, single point] | 
19 | CCCS/C(N)=N/N=C/c1cc(C)ccc1O | 0.184 µM [rising, full curve, poor fit] | 
20 | Cc1cc(C(=O)NC2CCC(C)CC2)c(C)o1 (stereo unspecified) | 25.1 µM [rising, single point] | 

Ordered by heavy-atom count (descending): 13 of the compounds above.
Row | Compound | AC50 [1] | AC50 [2]
18 | O=C(c1ccc(Cl)c(Cl)c1)N1CCC(=O)N(C(COCc2cccc(C(F)(F)F)c2)Cc2ccccc2)CC1 (stereo unspecified) | 16.4 µM [falling, single point] | 
15 | Cc1cc(C)c2nc(NNC(=O)c3ccc(S(=O)(=O)N4CCc5ccccc5C4)cc3)sc2c1 | 5.8 µM [rising, full curve] | 
12 | CCOc1ccc(-c2c(C(=O)N/N=C/C3CC=CCC3)nnn2-c2nonc2N)cc1 (stereo unspecified) | 6.31 µM [rising, single point] | 
4 | COc1ccc(Oc2ccc(/C=C/C(=O)c3ccc(O)cc3)cc2[N+](=O)[O-])cc1 | 20.6 µM [falling, single point] | 
7 | O=c1cc(CN2CCN(C/C=C/c3ccccc3)CC2)c2cc(O)ccc2o1 | 17.8 µM [falling, single point] | 
10 | CC(C)(C)c1ccc(C(=O)NCC(=O)OCc2ccc([N+](=O)[O-])cc2)cc1 | 13 µM [falling, partial curve, poor fit] | 
11 | COc1cccc(-n2nnc3c(=O)n(Cc4ccccc4F)cnc32)c1 | 5.62 µM [rising, partial curve, poor fit] | 
16 | Cc1cccc(NC(=O)N2CCCC2C(=O)NCc2ccccc2)c1 (stereo unspecified) | 17.8 µM [rising, single point] | 
13 | O=S(=O)(c1cccc(-c2nc3ccccc3s2)c1)N1CCCC1 | 29.1 µM [falling, single point] | 
3 | Cc1cc(C(=O)COc2ccc(F)cc2Br)c(C)n1C1CC1 | 29.1 µM [rising, partial curve, poor fit] | 
17 | O=c1c2ccccc2cnn1CCOc1ccccc1 | 14.6 µM [falling, partial curve, poor fit] | 
6 | COC(=O)Cn1cc(/C=C/[N+](=O)[O-])c2ccccc21 | 8.91 µM [falling, partial curve] | 35.5 µM [falling, single point]
19 | CCCS/C(N)=N/N=C/c1cc(C)ccc1O | 0.184 µM [rising, full curve, poor fit] | 

The results go on.

Row | Compound | AC50 [1] | AC50 [2]
21 | COc1ccc(-n2c(SCC(=O)Nc3ccc(NC(C)=O)cc3)nc3c([nH]c4ccccc43)c2=O)cc1OC |  | 14.1 µM [falling, partial curve, poor fit]
22 | Clc1ccc(CN2C3=NCCN3c3ccccc32)cc1Cl | 22.4 µM [falling, single point] | 
23 | O=C(N/N=C/c1cccs1)[C@H]1C[C@@H]1c1ccccc1 | 0.461 µM [rising, full curve, poor fit] | 
24 | O=[N+]([O-])c1ccc2nc(-c3ccccc3)cc(-c3ccccc3)c2c1 | 16.4 µM [rising, single point] | 
25 | CCSc1nc(-c2ccccc2)nc(C(Cl)Cl)n1 | 14.6 µM [rising, partial curve] | 20.6 µM [falling, partial curve, poor fit]
26 | COCCN=C(NS(=O)(=O)c1cccs1)c1ccccc1Cl | 29.1 µM [rising, single point] | 
27 | Cc1nc(SCCOc2ccc(F)cc2)c2ccccc2n1 | 2 µM [rising, partial curve, poor fit] | 
28 | CC(=O)c1cccn1S(=O)(=O)c1ccccc1 | 20 µM [rising, partial curve, poor fit] | 
29 | O=C(NCCCN1CCCC1=O)C1CCN(S(=O)(=O)c2cc(C(F)(F)F)ccc2Cl)CC1 | 20.6 µM [rising, partial curve] | 20.6 µM [falling, partial curve, poor fit]
30 | Cc1ccc(N=c2sc(C)c(C)n2C)cc1 | 23.1 µM [rising, single point] | 
31 | O=C(COc1ccc(S(=O)(=O)N2CCCC2)cc1Cl)NC1CC1 | 16.4 µM [rising, single point] | 
32 | CN1C(=O)C(O)(CC(=O)c2ccccn2)c2cc(Br)ccc21 (stereo unspecified) | 25.9 µM [rising, single point] | 29.1 µM [falling, single point]
33 | CC(=O)c1cc(C#N)c(N2CCN(c3ccccc3)CC2)nc1C | 4.47 µM [rising, partial curve, poor fit] | 
34 | CCOc1ccc(NC(=O)CN(C)C(=O)C2CSC3(C)CCC(=O)N23)cc1OCC (stereo unspecified) | 29.1 µM [rising, single point] | 
35 | O=C(/C=C/C=C/c1ccc2c(c1)OCO2)N1CCCCC1 | 20.6 µM [falling, partial curve, poor fit] | 
36 | O=C(COC(=O)c1ccc(F)cc1)Nc1ccccc1N1CCOCC1 | 0.146 µM [rising, full curve] | 
37 | O=c1c2ccccc2nc2n1CCc1c-2[nH]c2ccccc12 | 9.2 µM [falling, partial curve, poor fit] | 
38 | CCn1c(SCC(=O)c2ccccc2)nnc1-c1cnccn1 | 29.1 µM [falling, single point] | 
39 | C[C@@H]1O[C@@H](OC[C@H]2O[C@@H](Oc3c(-c4ccc(O)cc4)oc4cc(O)cc(O)c4c3=O)[C@H](O)[C@@H](O)[C@@H]2O)[C@H](O)[C@H](O)[C@H]1O | 1.64 µM [falling, full curve, poor fit] | 
40 | COc1ccc(-c2[nH]nc3c2C(c2ccoc2)C(C#N)=C(N)O3)cc1 (stereo unspecified) | 5.8 µM [falling, partial curve, poor fit] | 

Row | Compound | AC50 [1] | AC50 [2]
41 | COc1ccc(-n2cc(CN[C@H]3CCCCNC3=O)c(-c3cccc(F)c3)n2)cc1 | 35.5 µM [falling, single point] | 
42 | CCC(=O)OCC(=O)[C@@]1(OC(=O)CC)[C@@H](C)C[C@H]2[C@@H]3CCC4=CC(=O)C=C[C@]4(C)[C@@]3(Cl)[C@@H](O)C[C@@]21C | 20.6 µM [falling, single point] | 
43 | O=C(CNC(=O)c1ccco1)Nc1ccc(N2CCCCCC2)cc1 | 7.31 µM [rising, partial curve, poor fit] | 
44 | COc1cc(OC)c(OC)cc1/C=C1\Oc2cc(OCC(=O)N3Cc4ccccc4C[C@H]3C(=O)O)ccc2C1=O | 2.82 µM [falling, partial curve, poor fit] | 
45 | CN(Cc1ccccc1NS(=O)(=O)c1ccc(Cl)cc1)C1CCCCC1 | 0.631 µM [rising, full curve, poor fit] | 
46 | COc1ccc(Nc2nc(CN3CCOCC3)nc3sc4c(c23)CCC(C)C4)cc1OC (stereo unspecified) | 0.731 µM [rising, full curve, poor fit] | 
47 | Cc1nc2ccccc2c(=O)n1/N=C/c1ccncc1 | 4.61 µM [rising, partial curve] | 
48 | O=C(Nc1cccc(S(=O)(=O)N2CCCCCC2)c1)c1ccc(Cl)nc1 | 8.2 µM [falling, partial curve, poor fit] | 
49 | CC(C)Oc1ccc(C(=O)NC2CCCCC2)cc1 | 1.46 µM [falling, full curve] | 
50 | CCc1[nH]nc2c1C(c1cccc(OC(=O)N3CCOCC3)c1)C(C#N)=C(N)O2 (stereo unspecified) | 18.4 µM [falling, single point] | 16.4 µM [rising, partial curve, poor fit]
51 | CCOC(=O)Cc1cc(=O)n2[nH]c(-c3ccc(C)cc3)cc2n1 | 23.1 µM [falling, partial curve, poor fit] | 
52 | Cn1nnnc1SCc1nc2scc(-c3ccc(Cl)cc3)c2c(=O)[nH]1 | 25.1 µM [rising, single point] | 
53 | O=C(O/N=C(\c1ccccc1)c1ccccn1)c1cccc2ccccc12 | 9.2 µM [rising, partial curve] | 
54 | COc1ccc(-c2cn(-c3ccc(SC(F)F)cc3)c3[n+]2CCC3)cc1OC | 6.51 µM [rising, single point] | 
55 | CN(C)/C=C(\C#N)C(=O)N/N=C(\CC(=O)C(F)(F)F)c1ccco1 | 14.1 µM [rising, single point] | 
56 | CCOc1ccc(-n2nnnc2SCC(=O)c2ccccc2)cc1 | 35.5 µM [rising, partial curve, poor fit] | 35.5 µM [falling, single point]
57 | Cc1c(C(=O)OC2CCCCC2)sc2nc[nH]c(=O)c12 | 9.2 µM [rising, partial curve] | 
58 | Cc1cc2c(cc1C)NC(c1c(C)n(C)n(-c3ccccc3)c1=O)C1=C(CC(C)(C)CC1=O)N2 (stereo unspecified) | 0.326 µM [rising, full curve, poor fit] | 
59 | CC(C)(C)C(=O)N1CCN(c2nc3ccccc3s2)CC1 | 3.55 µM [rising, partial curve, poor fit] | 
60 | CC(C)(C)NS(=O)(=O)c1cccc(S(=O)(=O)c2cccc(S(=O)(=O)NC(C)(C)C)c2)c1 | 0.282 µM [rising, full curve, poor fit] | 

Record cards, from the list above.
O=c1c2ccccc2nc2n1CCc1c-2[nH]c2ccccc12 as listed: AC50 [1]: 9.2 µM [falling, partial curve, poor fit]
Cc1ccc(N=c2sc(C)c(C)n2C)cc1 as listed: AC50 [1]: 23.1 µM [rising, single point]
